Reference: PubChem BioAssay AID651640 (Broad Institute, 2012)
The campaign covered roughly 350,000 compounds. About 6,000 (1.7%) were called active. The inconclusive results got no clear call from the source; some entries with a clear call stand among them for comparison. Cut-off read from the data, not from the text of the source: active = CPE inhibition above about 20% (passing the limit was not always enough); inconclusive = no clear call, values can overlap the other calls; tested in BHK-21 cells.

Test: protection of cells from dengue 2 killing – plate reader, single concentration, primary screen (AID 651640);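 note: 0% = median of neutral control wells and 100% = median of positive control wells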
Settings: DENV2-infected cells, cytopathic effect rescue, at 9.99 µM, active compounds read high

Structure (SMILES)	CPE inhibition
CCOC(=O)c1cc(-c2ccccc2)n(Cc2cc(CC)no2)n1	inconclusive: 44.8%
O=C(NC1CCCC1)C(c1ccc(F)cc1)N(C(=O)c1csnn1)c1ccccc1 (centres undefined)	inactive: -3.88%
Cc1ccccc1N(C(=O)c1snc(C(N)=O)c1N)C(C(=O)NCc1ccccc1)c1ccc(O)cc1 (centres undefined)	inconclusive: 28.3%
CN(CC(=O)NCCCN1CCOCC1)S(=O)(=O)c1ccc(Cl)cc1	inconclusive: 56.4%
Cc1onc(-c2ccccc2)c1-c1ccnn1C(=O)NC(C)C	inactive: -0.828%
COc1ccc(NC(=O)CN2CCOCC2)cc1S(=O)(=O)N1CCCCC1	inactive: 2.39%
Clc1cccc(C2=NOC(c3nnc(-c4ccccc4)o3)C2)c1 (centres undefined)	active: 34.6%
CN1C(=O)c2cc(NC(=O)NC3CCCC3)ccc2OC[C@@H]2O[C@@H](CC(=O)O)CC[C@@H]21	inconclusive: 20.7%
O=C1c2ccccc2C(=O)N1CCOc1ccc(F)cc1	inconclusive: 30.2%
CN(C)CCCNC(=O)[C@@H]1[C@@H](CO)[C@@H]2Cn3c(ccc(-c4cccnc4)c3=O)[C@H]1N2C(=O)CC1CC1	inconclusive: 24.8%
COc1ccccc1CNC(=O)CCCn1nc(C)c2c(C)n(-c3ccccc3)nc2c1=O	inconclusive: 41.4%
O=C(c1cccc(F)c1)N1CC[C@H]2[C@H](CO)Nc3ccc(-c4ccc(F)cc4)cc3[C@H]21	inactive: -0.956%
OCc1cn(-c2ccccc2)nc1-c1ccc(Br)cc1	active: 48.5%
COc1ccc(N2CCN(C(=O)CSc3ncn[nH]3)CC2)cc1	inconclusive: 21.5%
C[C@@H]1CN([C@@H](C)CO)C(=O)Cc2cc(NC(=O)NC3CCCCC3)ccc2O[C@@H]1CN(C)S(=O)(=O)c1ccccc1	inconclusive: 41.3%
COc1ccc2oc(=Nc3ccc(C(=O)O)cc3)c(C(=O)NCc3ccco3)cc2c1	inconclusive: 20%
CCNC(=O)C[C@H]1CC[C@H]2[C@H](COc3ccc(NC(=O)Cc4ccccc4)cc3C(=O)N2C)O1	inactive: 9.46%
COC(=O)C1=C(C)N(CCCC(=O)O)C(=O)NC1c1ccc([N+](=O)[O-])cc1 (centres undefined)	inactive: -11.7%
C[C@@H]1CCCCO[C@@H](CN(C)S(C)(=O)=O)[C@H](C)CN([C@@H](C)CO)C(=O)c2cc(NS(=O)(=O)c3cn(C)cn3)ccc2O1	inconclusive: 21.9%
C/C=C/c1cnc2c(c1)C(=O)N([C@@H](C)CO)C[C@@H](C)[C@H](CN(C)C(=O)c1cccnc1)O2	inconclusive: 23.4%
CCCN1C[C@@H](C)[C@@H](OC)CN(C)C(=O)c2cc(NC(=O)c3cccc(F)c3)ccc2OC[C@@H]1C	active: 27.4%
CCOC(=O)C1=C(O)C(=O)N(c2ccc(S(N)(=O)=O)cc2)C1c1ccc(OC)cc1 (centres undefined)	inconclusive: 43.6%

Structure (SMILES)	CPE inhibition
CCc1ccc(OCC(=O)N/N=C/c2cc([N+](=O)[O-])ccc2N2CCOCC2)cc1	inconclusive: 76.2%
COC(=O)C1(C(=O)OC)c2ncccc2N(S(=O)(=O)c2ccc(C)cc2)C1CC(=O)c1ccccc1 (centres undefined)	active: 20.6%
Cc1ccc(S(=O)(=O)Nc2ccc3c(c2)CC(=O)N([C@H](C)CO)C[C@H](C)[C@H](CN(C)C(=O)Nc2ccc(C(F)(F)F)cc2)O3)cc1	inactive: -0.02%
C[C@@H]1CN([C@@H](C)CO)C(=O)c2cc(NC(=O)CCCN(C)C)ccc2O[C@@H](C)CCCCO[C@@H]1CN(C)S(=O)(=O)c1ccccc1	active: 30.9%
CC(C)NC(=O)N(C)C[C@H]1OCCCC[C@@H](C)Oc2ccc(NC(=O)c3ccncc3)cc2C(=O)N([C@H](C)CO)C[C@@H]1C	inactive: -3.54%
Cc1noc(C)c1NC(=O)N(C)C[C@@H]1Oc2c(NC(=O)c3nc4ccccc4s3)cccc2C(=O)N([C@H](C)CO)C[C@@H]1C	inconclusive: 29.1%
COc1ccc(C2CC(=O)C(c3ccccc3C)=CN2Cc2ccccc2)cc1 (centres undefined)	inconclusive: 40.6%
O=S(=O)(NC[C@@H]1N[C@@H](CO)[C@H]1c1ccccc1)c1ccccc1	inactive: -3.52%
Cc1cccc(NCc2ccccc2)c1	inactive: -4.08%
COc1ccc(S(=O)(=O)Nc2ccc3c(c2)C(=O)N([C@@H](C)CO)C[C@H](C)[C@@H](CN(C)C(=O)Nc2cccc4ccccc24)OCCCC[C@@H](C)O3)cc1	active: 25.7%
CC(C)(C)OC(=O)C[C@@H]1C/C=C\C[C@@H](CC(=O)N(CCO)Cc2ccccc2)C(=O)N[C@H](Cc2ccccc2)COC1=O	inconclusive: 48.1%
Cc1ccc(NC(=O)Nc2ccc3c(c2)C(=O)N(C)[C@H]2CC[C@H](CC(=O)NCC(F)(F)F)O[C@@H]2CO3)cc1	inconclusive: 27.4%
C[C@@H]1CN([C@H](C)CO)C(=O)Cc2cc(NC(=O)Nc3ccccc3)ccc2O[C@H]1CN(C)S(=O)(=O)c1cn(C)cn1	active: 61.7%
CC(C)CC#Cc1ccc2c(c1)O[C@@H](CN(C)C(=O)c1ccccc1F)[C@@H](C)CN([C@H](C)CO)S2(=O)=O	inconclusive: 27.4%
Cc1ccccc1S(=O)(=O)N1C(c2ccc(Cl)cc2)CC=C(C(=O)O)C1c1cccc(Cl)c1 (centres undefined)	active: 66.7%
O=C(O)c1ccccc1-c1ccccc1C(=O)Nc1ccc(F)cc1	inconclusive: 33.5%
CCOc1ccc(-c2nc(CSCC(=O)NCC3CCCO3)c(C)o2)cc1 (centres undefined)	inconclusive: 34%
Cc1ccc(-c2csc(N(CCO)CCCn3c(C(F)(F)F)nc4cc(C(F)(F)F)ccc43)n2)cc1	inconclusive: 53.4%
C=CC[C@H](CC(=O)NCCO)C(=O)NC[C@@H](OC(=O)[C@@H](CC=C)Cc1ccc(F)cc1)c1ccccc1	inconclusive: 27.8%
c1ccc(COc2cccc(-c3cc4nc(NCCCn5ccnc5)ccn4n3)c2)cc1	inconclusive: 25.4%
C[C@@H]1CN([C@H](C)CO)C(=O)c2cc(NS(=O)(=O)c3ccc(F)cc3)ccc2O[C@@H](C)CCCCO[C@H]1CN(C)Cc1ccccc1	inconclusive: 20.1%
COc1ccc(NC(=O)CSCC(=O)Nc2ccc(C)c(S(=O)(=O)N3CCCCCC3)c2)cc1	inconclusive: 41.8%

Looked up above:
Entry for COc1ccc(S(=O)(=O)Nc2ccc3c(c2)C(=O)N([C@@H](C)CO)C[C@H](C)[C@@H](CN(C)C(=O)Nc2cccc4ccccc24)OCCCC[C@@H](C)O3)cc1 under CPE inhibition: active: 25.7%
Entry for CC(C)NC(=O)N(C)C[C@H]1OCCCC[C@@H](C)Oc2ccc(NC(=O)c3ccncc3)cc2C(=O)N([C@H](C)CO)C[C@@H]1C under CPE inhibition: inactive: -3.54%
